Test results: publication PMC6123808
These are yes or no findings as the source states them, for the method shown. Binding seen in cells or lysates may run through a third protein. Some results given as binding are weak or reduced against the parent protein; the word gives no strength.

B1: inwardly rectifying K+ channel subtype Kir4.1 (protein, UniProt Q9JM63 1-379)
chain: MTSVAKVYYSQTTQTESRPLVAPGIRRRRVLTKDGRSNVRMEHIADKRFLYLKDLWTTFIDMQWRYKLLLFSATFAGTWFLFGVVWYLVAVAHGDLLELGPPANHTPCVVQVHTLTGAFLFSLESQTTIGYGFRYISEECPLAIVLLIAQLVLTTILEIFITGTFLAKIARPKKRAETIRFSQHAVVASHNGKPCLMIRVANMRKSLLIGCQVTGKLLQTHQTKEGENIRLNQVNVTFQVDTASDSPFLILPLTFYHVVDETSPLKDLPLRSGEGDFELVLILSGTVESTSATCQVRTSYLPEEILWGYEFTPAISLSASGKYIADFSLFDQVVKVASPSGLRDSTVRYGDPEKLKLEESLREQAEKEGSALSVRISNV
B2: oligodendrocyte-specific protein (OSP/Claudin-11) (protein, UniProt Q60771 1-207)
chain: MVATCLQVVGFVTSFVGWIGIIVTTSTNDWVVTCSYTIPTCRKMDELGSKGLWADCVMATGLYHCKPLVDILILPGYVQACRALMIAASVLGLPAILLLLTVLPCIRMGHEPGVAKYRRAQLAGVLLILLALCAIVATIWFPVCAHREITIVSFGYSLYAGWIGAVMCLVGGCVIVCCSGDAQSFGENRFYYSSGSSSPTHAKSAHV

What was measured:
[1] = biological target: T1, oligodendrocyte-specific protein (OSP/Claudin-11) (mouse (endogenous in brain tissue)) (UniProt Q60771); assay: co-IP; extracts from isolated mouse brain tissue (WT; also contralateral and ipsilateral tissue of tMCAO mice), precleared with Protein G-agarose, 4 ug antibody or control normal IgG with protein G-agarose beads overnight at 4 °C, Pierce Classic IP kit, Western blot; both directions (IP of OSP and IP of Kir4.1)
T1 sequence: B2 chain

[2] = biological target: T2, inwardly rectifying K+ channel subtype Kir4.1 (mouse (endogenous in brain tissue)) (UniProt Q9JM63); assay: as above
T2 sequence: B1 chain

Binder | binding [1] | binding [2]
B1 | binds | 
B2 |  | binds
